# Experimental data: the supplement of paper PMC7666118
# The chains behind the UniProt entries cited, without tags or fusion partners. Where a name states a change or a piece, a line headed by the entry shows the natural chain unless it says otherwise.
# UniProt P30305: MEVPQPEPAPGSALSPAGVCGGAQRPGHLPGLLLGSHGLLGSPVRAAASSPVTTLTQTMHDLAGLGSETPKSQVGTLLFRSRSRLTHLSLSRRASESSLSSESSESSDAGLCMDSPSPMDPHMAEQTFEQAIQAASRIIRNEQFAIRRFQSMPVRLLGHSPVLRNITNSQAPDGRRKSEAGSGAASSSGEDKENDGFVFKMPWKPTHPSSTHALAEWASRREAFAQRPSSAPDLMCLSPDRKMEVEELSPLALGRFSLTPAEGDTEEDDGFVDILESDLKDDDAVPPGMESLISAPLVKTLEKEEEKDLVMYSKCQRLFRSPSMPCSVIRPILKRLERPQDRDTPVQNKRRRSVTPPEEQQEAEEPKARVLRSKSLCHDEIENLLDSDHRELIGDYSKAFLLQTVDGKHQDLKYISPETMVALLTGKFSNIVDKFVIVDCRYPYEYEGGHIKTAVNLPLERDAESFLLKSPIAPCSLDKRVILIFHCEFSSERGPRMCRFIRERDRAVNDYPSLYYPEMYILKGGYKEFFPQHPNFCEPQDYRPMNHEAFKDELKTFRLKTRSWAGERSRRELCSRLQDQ
# UniProt Q69YH5: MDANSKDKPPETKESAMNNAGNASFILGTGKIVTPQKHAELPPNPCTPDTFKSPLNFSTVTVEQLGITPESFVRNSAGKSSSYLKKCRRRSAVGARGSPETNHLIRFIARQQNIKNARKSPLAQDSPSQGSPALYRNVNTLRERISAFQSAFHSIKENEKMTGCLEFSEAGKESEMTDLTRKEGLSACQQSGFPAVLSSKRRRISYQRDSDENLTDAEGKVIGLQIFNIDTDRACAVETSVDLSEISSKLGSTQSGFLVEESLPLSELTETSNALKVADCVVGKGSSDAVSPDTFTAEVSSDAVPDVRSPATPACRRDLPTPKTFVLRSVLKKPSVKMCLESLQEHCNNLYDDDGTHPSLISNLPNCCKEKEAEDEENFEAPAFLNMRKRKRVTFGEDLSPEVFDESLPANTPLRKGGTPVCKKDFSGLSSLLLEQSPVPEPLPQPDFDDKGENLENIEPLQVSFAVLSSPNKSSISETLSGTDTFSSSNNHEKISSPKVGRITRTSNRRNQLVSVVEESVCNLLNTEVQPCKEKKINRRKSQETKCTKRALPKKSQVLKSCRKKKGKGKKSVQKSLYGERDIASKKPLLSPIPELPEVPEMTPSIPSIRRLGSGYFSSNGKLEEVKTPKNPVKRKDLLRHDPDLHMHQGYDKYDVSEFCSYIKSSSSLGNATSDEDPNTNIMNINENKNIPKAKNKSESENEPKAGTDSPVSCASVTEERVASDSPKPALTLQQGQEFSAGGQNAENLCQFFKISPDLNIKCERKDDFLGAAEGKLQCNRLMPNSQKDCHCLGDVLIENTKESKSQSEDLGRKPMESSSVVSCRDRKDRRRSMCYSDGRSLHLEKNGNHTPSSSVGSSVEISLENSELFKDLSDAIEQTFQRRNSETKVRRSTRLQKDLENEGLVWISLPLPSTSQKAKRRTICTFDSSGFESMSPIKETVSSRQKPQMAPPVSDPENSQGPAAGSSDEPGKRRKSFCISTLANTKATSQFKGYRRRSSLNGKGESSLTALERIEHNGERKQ
# UniProt Q8N2M8: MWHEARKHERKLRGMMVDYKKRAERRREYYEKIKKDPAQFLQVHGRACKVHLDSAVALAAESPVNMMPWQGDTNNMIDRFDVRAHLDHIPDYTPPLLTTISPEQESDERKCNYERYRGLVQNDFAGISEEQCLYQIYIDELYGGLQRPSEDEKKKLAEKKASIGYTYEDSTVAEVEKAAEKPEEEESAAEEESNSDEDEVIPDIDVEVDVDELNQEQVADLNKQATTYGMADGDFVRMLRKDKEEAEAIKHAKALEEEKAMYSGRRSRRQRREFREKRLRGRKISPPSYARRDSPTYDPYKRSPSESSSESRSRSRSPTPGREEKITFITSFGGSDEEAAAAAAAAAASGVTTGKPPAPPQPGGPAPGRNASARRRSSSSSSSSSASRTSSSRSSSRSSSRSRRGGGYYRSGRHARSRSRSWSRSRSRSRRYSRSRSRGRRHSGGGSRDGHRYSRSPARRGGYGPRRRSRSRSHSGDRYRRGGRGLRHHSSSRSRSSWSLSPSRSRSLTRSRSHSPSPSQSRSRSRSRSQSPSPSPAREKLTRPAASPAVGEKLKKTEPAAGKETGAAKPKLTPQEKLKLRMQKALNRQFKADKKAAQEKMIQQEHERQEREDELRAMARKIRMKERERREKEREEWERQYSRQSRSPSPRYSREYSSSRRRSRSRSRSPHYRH
# UniProt Q13185: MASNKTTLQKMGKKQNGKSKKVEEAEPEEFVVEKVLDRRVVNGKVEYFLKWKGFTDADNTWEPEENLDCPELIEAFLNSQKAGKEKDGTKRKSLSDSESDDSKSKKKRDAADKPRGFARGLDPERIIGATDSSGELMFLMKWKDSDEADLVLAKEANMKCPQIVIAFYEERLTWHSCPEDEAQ
# UniProt P46527, whole entry: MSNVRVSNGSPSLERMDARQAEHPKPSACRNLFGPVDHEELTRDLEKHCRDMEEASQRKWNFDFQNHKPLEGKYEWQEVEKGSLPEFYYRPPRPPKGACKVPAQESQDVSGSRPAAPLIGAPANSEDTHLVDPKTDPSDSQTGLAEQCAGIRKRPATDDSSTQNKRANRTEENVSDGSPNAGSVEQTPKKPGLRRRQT
# UniProt Q7Z7K0: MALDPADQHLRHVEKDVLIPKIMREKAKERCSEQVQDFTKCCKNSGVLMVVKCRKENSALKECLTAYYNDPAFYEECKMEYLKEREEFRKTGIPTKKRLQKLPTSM
# UniProt Q8IW35: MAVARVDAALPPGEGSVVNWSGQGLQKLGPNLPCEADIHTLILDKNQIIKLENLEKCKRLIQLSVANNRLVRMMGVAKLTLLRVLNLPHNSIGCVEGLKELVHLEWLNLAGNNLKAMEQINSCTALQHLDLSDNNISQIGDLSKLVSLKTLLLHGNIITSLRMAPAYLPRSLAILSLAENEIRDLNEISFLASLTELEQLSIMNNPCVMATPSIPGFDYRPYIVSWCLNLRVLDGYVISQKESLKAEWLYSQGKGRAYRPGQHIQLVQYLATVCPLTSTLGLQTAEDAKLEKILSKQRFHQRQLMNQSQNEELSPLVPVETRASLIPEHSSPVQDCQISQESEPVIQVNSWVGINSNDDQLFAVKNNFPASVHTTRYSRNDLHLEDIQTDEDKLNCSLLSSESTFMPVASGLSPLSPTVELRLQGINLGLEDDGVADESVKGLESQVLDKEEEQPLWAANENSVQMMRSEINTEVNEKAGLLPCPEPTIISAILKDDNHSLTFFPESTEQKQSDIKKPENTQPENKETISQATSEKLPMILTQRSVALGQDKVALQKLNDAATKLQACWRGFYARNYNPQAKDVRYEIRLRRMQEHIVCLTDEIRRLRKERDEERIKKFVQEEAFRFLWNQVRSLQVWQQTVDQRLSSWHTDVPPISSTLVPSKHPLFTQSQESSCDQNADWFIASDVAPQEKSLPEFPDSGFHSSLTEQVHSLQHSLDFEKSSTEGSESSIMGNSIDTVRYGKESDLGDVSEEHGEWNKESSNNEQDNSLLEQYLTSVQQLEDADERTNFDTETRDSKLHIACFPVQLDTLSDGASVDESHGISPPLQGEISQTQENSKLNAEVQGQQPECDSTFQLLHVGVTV
# UniProt Q9UBL6: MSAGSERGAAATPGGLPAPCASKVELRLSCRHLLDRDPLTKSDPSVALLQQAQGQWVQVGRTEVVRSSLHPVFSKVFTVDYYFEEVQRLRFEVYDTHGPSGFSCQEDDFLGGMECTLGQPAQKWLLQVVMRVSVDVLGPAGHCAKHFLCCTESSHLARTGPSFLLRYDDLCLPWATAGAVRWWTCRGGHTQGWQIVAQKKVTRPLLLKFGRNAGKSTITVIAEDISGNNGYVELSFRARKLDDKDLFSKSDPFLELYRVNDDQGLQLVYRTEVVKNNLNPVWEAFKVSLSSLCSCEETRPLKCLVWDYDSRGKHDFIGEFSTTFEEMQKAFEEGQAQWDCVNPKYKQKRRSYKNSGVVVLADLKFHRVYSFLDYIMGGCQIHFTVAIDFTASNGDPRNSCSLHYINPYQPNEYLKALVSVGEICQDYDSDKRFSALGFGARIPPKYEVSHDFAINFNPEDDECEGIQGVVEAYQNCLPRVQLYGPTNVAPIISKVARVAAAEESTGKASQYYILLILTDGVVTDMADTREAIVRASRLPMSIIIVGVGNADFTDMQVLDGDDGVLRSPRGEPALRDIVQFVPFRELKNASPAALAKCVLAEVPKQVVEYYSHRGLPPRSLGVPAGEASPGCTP
# UniProt O95273: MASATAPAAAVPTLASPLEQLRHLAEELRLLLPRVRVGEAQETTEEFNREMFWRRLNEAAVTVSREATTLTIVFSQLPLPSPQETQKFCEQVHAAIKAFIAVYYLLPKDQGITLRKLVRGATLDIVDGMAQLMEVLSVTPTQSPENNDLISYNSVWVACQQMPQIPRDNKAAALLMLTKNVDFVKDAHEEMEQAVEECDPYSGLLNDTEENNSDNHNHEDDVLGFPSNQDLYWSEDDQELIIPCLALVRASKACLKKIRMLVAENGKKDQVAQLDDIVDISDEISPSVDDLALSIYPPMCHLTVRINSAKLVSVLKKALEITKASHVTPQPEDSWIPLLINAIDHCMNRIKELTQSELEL
# UniProt Q14839: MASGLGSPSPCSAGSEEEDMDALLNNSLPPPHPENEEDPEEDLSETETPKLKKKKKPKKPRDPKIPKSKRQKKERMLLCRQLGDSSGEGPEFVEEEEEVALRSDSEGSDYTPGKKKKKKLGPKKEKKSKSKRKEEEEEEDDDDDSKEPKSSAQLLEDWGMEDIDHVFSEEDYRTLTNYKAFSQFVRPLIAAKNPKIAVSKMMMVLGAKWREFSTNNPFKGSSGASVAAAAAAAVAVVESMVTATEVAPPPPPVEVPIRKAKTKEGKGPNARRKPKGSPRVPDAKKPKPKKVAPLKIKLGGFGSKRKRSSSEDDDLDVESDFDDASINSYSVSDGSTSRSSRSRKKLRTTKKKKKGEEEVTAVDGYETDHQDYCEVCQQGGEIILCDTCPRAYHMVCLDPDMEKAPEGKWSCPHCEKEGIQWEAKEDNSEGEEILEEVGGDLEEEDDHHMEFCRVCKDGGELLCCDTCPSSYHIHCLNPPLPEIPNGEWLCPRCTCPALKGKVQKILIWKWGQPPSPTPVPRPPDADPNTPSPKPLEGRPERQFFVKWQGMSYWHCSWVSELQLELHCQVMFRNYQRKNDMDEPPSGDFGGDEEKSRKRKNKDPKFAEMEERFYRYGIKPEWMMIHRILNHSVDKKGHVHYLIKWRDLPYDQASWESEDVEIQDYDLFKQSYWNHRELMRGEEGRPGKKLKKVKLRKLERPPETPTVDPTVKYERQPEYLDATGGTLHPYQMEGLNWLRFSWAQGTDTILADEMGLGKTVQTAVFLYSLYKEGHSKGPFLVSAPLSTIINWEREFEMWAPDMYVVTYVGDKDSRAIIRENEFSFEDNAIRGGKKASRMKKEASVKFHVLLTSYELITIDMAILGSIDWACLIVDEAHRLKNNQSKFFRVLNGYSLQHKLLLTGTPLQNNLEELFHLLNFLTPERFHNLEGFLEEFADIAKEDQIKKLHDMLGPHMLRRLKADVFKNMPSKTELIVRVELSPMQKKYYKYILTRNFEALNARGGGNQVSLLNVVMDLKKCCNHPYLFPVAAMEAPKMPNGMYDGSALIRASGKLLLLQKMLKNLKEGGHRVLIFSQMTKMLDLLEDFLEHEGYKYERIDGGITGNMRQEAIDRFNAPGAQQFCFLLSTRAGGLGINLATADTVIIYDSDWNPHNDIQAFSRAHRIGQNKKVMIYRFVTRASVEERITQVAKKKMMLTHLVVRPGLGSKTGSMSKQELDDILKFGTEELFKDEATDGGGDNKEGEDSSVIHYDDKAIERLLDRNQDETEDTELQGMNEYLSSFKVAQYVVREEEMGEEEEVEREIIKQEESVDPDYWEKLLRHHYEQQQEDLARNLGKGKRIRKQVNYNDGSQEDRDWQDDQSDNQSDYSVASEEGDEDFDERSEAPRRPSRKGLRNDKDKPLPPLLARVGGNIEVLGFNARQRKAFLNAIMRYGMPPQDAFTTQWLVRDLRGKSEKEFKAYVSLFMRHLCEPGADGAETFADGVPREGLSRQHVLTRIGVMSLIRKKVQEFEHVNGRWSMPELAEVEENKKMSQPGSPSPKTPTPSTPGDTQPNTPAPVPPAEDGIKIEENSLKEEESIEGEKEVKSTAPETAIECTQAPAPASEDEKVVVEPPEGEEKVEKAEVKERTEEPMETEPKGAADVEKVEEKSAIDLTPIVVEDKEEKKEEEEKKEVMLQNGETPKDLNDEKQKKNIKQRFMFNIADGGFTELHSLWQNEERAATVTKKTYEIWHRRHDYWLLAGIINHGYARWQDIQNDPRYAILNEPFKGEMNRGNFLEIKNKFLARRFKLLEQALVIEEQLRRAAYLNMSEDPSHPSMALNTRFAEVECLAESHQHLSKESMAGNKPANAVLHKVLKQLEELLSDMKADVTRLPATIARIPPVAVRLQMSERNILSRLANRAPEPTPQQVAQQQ
# The list shows a part of the results.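 Rule for the calls: active = dose-dependent thermal stabilisation significant by F-test of dose-response against flat model at 10% FDR; inactive = not significant.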
# Compound: Nc1nc2c(ncn2[C@@H]2O[C@H](COP(=O)(O)OP(=O)(O)OP(=O)(O)O)[C@@H](O)[C@H]2O)c(=O)[nH]1
# Experiment: dose-dependent thermal stabilisation call (2D-TPP, DLPTP, 10% FDR) (binary (1 = stabilised)); higher = stabilised by the compound
# Settings: system: Jurkat gel-filtered lysate; concentration range 1-500 µM
row,Target,dose-dependent thermal stabilisation call
1,CPPED1 (UniProt Q9BRF8),inactive: 0
2,CDC25B (UniProt P30305),inactive: 0
3,CCDC134 (UniProt Q9H6E4),inactive: 0
4,COPG2 (UniProt Q9UBF2),inactive: 0
5,COPB1 (UniProt P53618),inactive: 0
6,CCT6A (UniProt P40227),inactive: 0
7,CDCA2 (UniProt Q69YH5),inactive: 0
8,CLASRP (UniProt Q8N2M8),inactive: 0
9,CD1E (UniProt P15812),inactive: 0
10,CBX3 (UniProt Q13185),inactive: 0
11,CMTR1 (UniProt Q8N1G2),active: 1
12,CDKN1B (UniProt P46527),inactive: 0
13,CHAMP1 (UniProt Q96JM3),inactive: 0
14,CHMP1A (UniProt Q9HD42),inactive: 0
15,CBS (UniProt P35520),inactive: 0
16,CD2BP2 (UniProt O95400),inactive: 0
17,CNOT11 (UniProt Q9UKZ1),inactive: 0
18,CNOT7 (UniProt Q9UIV1),inactive: 0

row,Target,dose-dependent thermal stabilisation call
1,CENPJ (UniProt Q9HC77),inactive: 0
2,CCDC86 (UniProt Q9H6F5),inactive: 0
3,CMC1 (UniProt Q7Z7K0),inactive: 0
4,CCSER2 (UniProt Q9H7U1),inactive: 0
5,CEP97 (UniProt Q8IW35),inactive: 0
6,CCDC82 (UniProt Q8N4S0),inactive: 0
7,CPVL (UniProt Q9H3G5),inactive: 0
8,COPZ1 (UniProt P61923),inactive: 0
9,CCNB1 (UniProt P14635),inactive: 0
10,CNOT1 (UniProt A5YKK6),inactive: 0
11,CPNE7 (UniProt Q9UBL6),inactive: 0
12,CELF1 (UniProt Q92879),active: 1
13,CCNDBP1 (UniProt O95273),inactive: 0
14,CHD4 (UniProt Q14839),inactive: 0
15,CCDC6 (UniProt Q16204),inactive: 0
16,CLIP2 (UniProt Q9UDT6),inactive: 0
17,CLPB (UniProt Q9H078),active: 1
18,CEP135 (UniProt Q66GS9),inactive: 0

# Reprinted from the listing for reference:
row,Target,dose-dependent thermal stabilisation call
15,CCDC6 (UniProt Q16204),inactive: 0
16,CLIP2 (UniProt Q9UDT6),inactive: 0
